According to patent US9486524B2, “Composition for eliciting a specific CTL response, comprising a lympho-ablative compound and a molecule that contains antigenic sequences and targets professional antigen presenting cells” (priority 2006, dated 2016):
At least one structure is not confirmed: it was looked up by name or label, or the drawing left a doubt. Some entries share one result that the patent states for a list of compounds.

Tested on: MCa32A cells
Assay: Tumor rejection model, MC38 murine colon adenocarcinoma cells expressing CEA (Example 2)
Format: in vivo, C57BL/6 mice
Description: Blood sampling was performed by tail bleeding.
MC32aCEA cells expressing CEA protein were obtained from Pr. W. Zimermann (LTI, Munich). These cells are derived from the MC38 murine colon adenocarcinoma (48).

Row | Molecule | MCa32A tumor growth (Fludarabine treatment lasting 6 days) | survival median (5×10^5 tumor cells, immunized 10 days after tumor injection, control animals (no immunosuppression)) [days]
1 | Nc1nc(F)nc2c1ncn2[C@@H]1O[C@H](CO)[C@@H](O)[C@@H]1O [Fludarabine] | partially inhibited | –
2 | His-Tag-CEA: histidine-tagged full length CEA protein, used as control, formulated with CpG (protein, UniProt P06731 1-702, looked up, full-length His tag, histidine-tagged full length CEA protein, used as control, formulated with CpG) MESPSAPPHRWCIPWQRLLLTASLLTFWNPPTTAKLTIESTPFNVAEGKEVLLLVHNLPQHLFGYSWYKGERVDGNRQIIGYVIGTQQATPGPAYSGREIIYPNASLLIQNIIQNDTGFYTLHVIKSDLVNEEATGQFRVYPELPKPSISSNNSKPVEDKDAVAFTCEPETQDATYLWWVNNQSLPVSPRLQLSNGNRTLTLFNVTRNDTASYKCETQNPVSARRSDSVILNVLYGPDAPTISPLNTSYRSGENLNLSCHAASNPPAQYSWFVNGTFQQSTQELFIPNITVNNSGSYTCQAHNSDTGLNRTTVTTITVYAEPPKPFITSNNSNPVEDEDAVALTCEPEIQNTTYLWWVNNQSLPVSPRLQLSNDNRTLTLLSVTRNDVGPYECGIQNELSVDHSDPVILNVLYGPDDPTISPSYTYYRPGVNLSLSCHAASNPPAQYSWLIDGNIQQHTQELFISNITEKNSGLYTCQANNSASGHSRTTVKTITVSAELPKPSISSNNSKPVEDKDAVAFTCEPEAQNTTYLWWVNGQSLPVSPRLQLSNGNRTLTLFNVTRNDARAYVCGIQNSVSANRSDPVTLDVLYGPDTPIISPPDSSYLSGANLNLSCHSASNPSPQYSWRINGIPQQHTQVLFIAKITPNNNGTYACFVSNLATGRNNSIVKSITVSASGTSPGLSAGATVGIMIGVLVGVALI | – | 13 to 15
